Binding signal data for 42 sequences are collected here from article PMC7819943, “Rice protein-binding microarrays: a tool to detect cis-acting elements near promoter regions in rice”.

This is one part of the list.

In the test the target is T1, OsSMF1 (Oryza sativa, UniProt Q6ZLB0 1-436).
T1 sequence: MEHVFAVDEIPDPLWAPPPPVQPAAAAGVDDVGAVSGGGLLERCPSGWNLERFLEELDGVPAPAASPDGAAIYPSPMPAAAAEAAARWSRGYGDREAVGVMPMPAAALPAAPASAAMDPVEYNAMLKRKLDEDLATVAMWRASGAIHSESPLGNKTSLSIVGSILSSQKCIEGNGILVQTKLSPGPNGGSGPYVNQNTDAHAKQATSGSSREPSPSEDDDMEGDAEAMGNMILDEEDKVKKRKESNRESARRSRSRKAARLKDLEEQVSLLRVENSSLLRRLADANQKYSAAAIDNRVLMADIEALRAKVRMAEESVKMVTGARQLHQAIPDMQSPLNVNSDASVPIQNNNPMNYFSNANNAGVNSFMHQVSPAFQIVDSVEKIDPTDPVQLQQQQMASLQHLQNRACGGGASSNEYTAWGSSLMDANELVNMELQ
As to the kind of experiment: protein-binding microarray (RPBM); PBS, 2% BSA, 51.3 ng/ul salmon testes DNA, 50 uM zinc acetate, 200 nM TF, 25 C, 1 h; high values mean tight binding. To be noted: protein: recombinant; tags: N-terminal polyhistidine and DsRed monomer fusion (pET32a); chain copies: 2; label: CyDye5-dUTP incorporated in the synthesized complementary strand; 3' TTTTT single-stranded linker to array surface; dsDNA, one strand shown. The essentials:
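A custom Agilent array was converted to double-stranded form by primer extension with Cy5-dUTP and blocked with 2% BSA. Protein at 200 nM in PBS with 2% BSA, salmon testes DNA and 50 µM zinc acetate was applied for 1 h at 25 °C, followed by washing. The proteins were polyhistidine–DsRed N-terminal fusions of transcription factors, expressed in E. coli BL21-CodonPlus and Ni–NTA-purified. The binding signal is per-feature fluorescence intensity (arbitrary units) from an Axon 4000B scanner.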
With “TTCCCTAGACTGTTTTGGGTGTCACTGGTTTGGCGGTTACCGGAGTCACCTAGTGCAG”, the binding signal was 3760 fluorescence intensity (a.u.).
As to “TAGTTATAAAGCACTGTAATTTTAGTTATAAATACAACATCGGAGTCACCTAGTGCAG”, the binding signal is 3260 fluorescence intensity (a.u.).
Regarding “CGTAGCTACGACTTCGAGAAATGACATGTCATCGGTGCCTCGGAGTCACCTAGTGCAG”, the binding signal is 13300 fluorescence intensity (a.u.).
As for “TTTAATTTTAACGTTAACTAAACACACCCTTAGTACTGGACGGAGTCACCTAGTGCAG”, the binding signal was 3990 fluorescence intensity (a.u.).
To “GAAACCACCGCCATGCCGCCCTTTTGCTGCCCACGTCGCCCGGAGTCACCTAGTGCAG” belongs 3780 fluorescence intensity (a.u.); to “TTATACCCATACGTGTTCCCTTTTCCAAGTAGAACTAGGGCGGAGTCACCTAGTGCAG”, 5120 fluorescence intensity (a.u.).
For the sequence “GGAACCGAGAGAACGACCTGCTCGACGCGTGGACTCGGCGCGGAGTCACCTAGTGCAG”, the binding signal is 4990 fluorescence intensity (a.u.).
To “TCATCTCCCCATCTCATTGGCAGCGGCTGCCGGATAAAATCGGAGTCACCTAGTGCAG” belongs 3560 fluorescence intensity (a.u.); to “CACAAAATGCATATGATGTGTCAATTGTTCTTAATTTGACCGGAGTCACCTAGTGCAG”, 4720 fluorescence intensity (a.u.); to “GATTCTAATGGATGAATTGATGGTGTGGCGTATGTGATAGCGGAGTCACCTAGTGCAG”, 3980 fluorescence intensity (a.u.).
As for “CTTAGCTCAACACTATATAGTACTGCATGCGTTTGATATACGGAGTCACCTAGTGCAG”, the binding signal was 3870 fluorescence intensity (a.u.).
Turning to “CATGCAGTGCAGCACAGTCACACGCTGATAATACGTCATACGGAGTCACCTAGTGCAG”, the binding signal is 5680 fluorescence intensity (a.u.).
To “ATCCGGCGGCAGTTAGCTATGGTGGCATCGATGACGGCCACGGAGTCACCTAGTGCAG” belongs 3200 fluorescence intensity (a.u.).
As to “CCGCCACCACCCGTGCCCGCCGCATCCAGCTCATCTCCGTCGGAGTCACCTAGTGCAG”, the binding signal is 5960 fluorescence intensity (a.u.).
Consider “AAAGGGGAACTTCAGGGCGTGACACCCGCTGCTCTTCTCTCGGAGTCACCTAGTGCAG”, for which the binding signal was 3350 fluorescence intensity (a.u.).
In the case of “ACGGCAAAATTTGCCACAGGACACGTAAAATACGTGTAATCGGAGTCACCTAGTGCAG”, the binding signal is 5050 fluorescence intensity (a.u.).
Take “CACGTGCATCTGTCAGTGACACATTACTACTACCACAACTCGGAGTCACCTAGTGCAG”: the binding signal is 4680 fluorescence intensity (a.u.).
For “ATGACAGACAACCATGCAGTCCTGCAATGCAAAACGCATTCGGAGTCACCTAGTGCAG”, the binding signal is 3230 fluorescence intensity (a.u.).
For “TTGCTCTGCAGCTCACAGGTCATGGCAAACTAATTAAATTCGGAGTCACCTAGTGCAG”, the binding signal is 4230 fluorescence intensity (a.u.).
Consider “TGTTGGTGGGGTCCCGTACGTGTGGTTTACGCGTCCCGTTCGGAGTCACCTAGTGCAG”, for which the binding signal is 3380 fluorescence intensity (a.u.).
Consider “GTGCAACCGAAGGCATGGATGAGGTCAGGATCATCCATCCCGGAGTCACCTAGTGCAG”, for which the binding signal was 3320 fluorescence intensity (a.u.).
For the sequence “CTCCGCTTCGCGCCGTCGCTATCGTCGTCCGCATCGCCTCCGGAGTCACCTAGTGCAG”, the binding signal is 3720 fluorescence intensity (a.u.).
To “TCAGTAGGCCAGTAGCTAGCTGCTGCCTTCACACATCAATCGGAGTCACCTAGTGCAG” belongs 3160 fluorescence intensity (a.u.); to “TTTCACACATGTCACGTGTAAGATCTTACAATGTAACTTACGGAGTCACCTAGTGCAG”, 4210 fluorescence intensity (a.u.); to “GCTTGGTGTTTGTGCTTGTTGTTGCGTTGCGTTTGCTTATCGGAGTCACCTAGTGCAG”, 3590 fluorescence intensity (a.u.).
Consider “ACACTCTCGATGTATAGATTCACCCACGAGATGATGTGGCCGGAGTCACCTAGTGCAG”, for which the binding signal was 6570 fluorescence intensity (a.u.).
The result for “GCAATAACACTTGTTATACCGATCGTATCCGACGTGGCTACGGAGTCACCTAGTGCAG” reads 13900 fluorescence intensity (a.u.); that for “GGGTGGTCGACGAGGACGTGGAGCGCCACGCGGTCCCCGGCGGAGTCACCTAGTGCAG”, 7010 fluorescence intensity (a.u.); that for “CCCTCCCAAACCCTCGCGCGCGCTCTGCGGCTTCTCTCTCCGGAGTCACCTAGTGCAG”, 12700 fluorescence intensity (a.u.).
For “CTAGCTTTGAGGTGGAGGTGGTGGTGGAGGAGGAGGAGGACGGAGTCACCTAGTGCAG”, the binding signal is 3340 fluorescence intensity (a.u.).
Consider “GCGGCCTCGTCTACAACGCCGGCCCGCACTTCCACATCAACGGAGTCACCTAGTGCAG”, for which the binding signal was 3470 fluorescence intensity (a.u.).
As to “GCACACTGACACACAGTCACACACCATCCCGCTCTCTCCACGGAGTCACCTAGTGCAG”, the binding signal was 5750 fluorescence intensity (a.u.).
The result for “CCAAAACCAGCAAGCCACAGCCTGCCATGTCATGTTTGTACGGAGTCACCTAGTGCAG” reads 9780 fluorescence intensity (a.u.); that for “CGTACGGCACCGAGTTATCGCCGCCAGGTCAGTTGGTTTACGGAGTCACCTAGTGCAG”, 3690 fluorescence intensity (a.u.); that for “AAAATCATTCAGTTAAACATTATCCAACGCGGCATTACCCCGGAGTCACCTAGTGCAG”, 5870 fluorescence intensity (a.u.).
“CATCATGACATGTGTTATGAAGTGATGATGGGACCATTCCCGGAGTCACCTAGTGCAG”: the binding signal was 4120 fluorescence intensity (a.u.).
“ATGGCGGGCAATGCGGTTAGCTAATCAATGGCCACGCTGACGGAGTCACCTAGTGCAG”: the binding signal is 3160 fluorescence intensity (a.u.).
Turning to “ATTTGTCGTGACATCACATCGCCTGTGTCATGGCGATGACCGGAGTCACCTAGTGCAG”, the binding signal was 5160 fluorescence intensity (a.u.).
As for “CAAGAAGTATGTCATAGCTGAGTCATGATATGTATAACTCCGGAGTCACCTAGTGCAG”, the binding signal was 14000 fluorescence intensity (a.u.).
For “TTCCTAGTTGTGCAGCAGATGTTTATTTCGTGTGACTGTGCGGAGTCACCTAGTGCAG”, the binding signal is 4210 fluorescence intensity (a.u.).
For “GTCATTGTATTGACACTTCTAGTCAGCTTCAGCATGAAGGCGGAGTCACCTAGTGCAG”, the binding signal is 17600 fluorescence intensity (a.u.).
With “GTGGGCGCCGCCGATGACGACGCGTCACGACCGAATAACCCGGAGTCACCTAGTGCAG”, the binding signal is 5160 fluorescence intensity (a.u.).
